The nature of data set [1]: general procedure: Fmoc solid-phase peptide synthesis; HMPB-BHA resin (0.86 mmol/g); Wang resin; HATU/DIEA; HBTU/HOBT/DIEA. The note with it: conjugation step.
Data set [2] is described as follows: general procedure: Fmoc solid-phase peptide synthesis; HMPB-BHA resin; HATU/DIEA; HBTU/HOBT/DIEA. As to conditions: whole synthesis.

Conjugation yield and isolated yield data for two substances are collected here from patent publication US6416733B1 (Bristol-Myers Squibb Pharma Company, priority 1996, dated 2002).

*: point of attachment. Dde = CC(=C1C(=O)CC(C)(C)CC1=O)*; Boc = CC(C)(C)OC(=O)*

In data set [1], “3-(6-(3-(N-(3-((6-((1-Aza-2-(2-sulfophenyl)vinyl)amino)(3-pyridyl))-Gly-Lys-Lys-Lys)aminopropyl)carbamoyl)propoxy)-2-(5-(5-oxo-1-prop-2-enyl(2-6,7,8-trihydronaphthyloxy))pentyloxy)phenyl)propanoic Acid” gave a conjugation yield of 35%.

For Boc-GK(Dde)K(Dde)K(Dde)-OH, in data set [2], the isolated yield is reported as 35%.
